Assay results taken from paper PMC4457826.
These are yes or no findings as the source states them, for the method shown. For some assays here: Binding seen in cells or lysates may run through a third protein. Some entries that bind do so weakly or less than the wild type.

By UniProt entry, the sequences of proteins in these tests, tags left out. Where a name states a change or a piece, a line headed by the entry shows the natural chain unless it says otherwise. Chains listed by the source or under a name are the forms on record and can include a tag or linker.
UniProt Q93009: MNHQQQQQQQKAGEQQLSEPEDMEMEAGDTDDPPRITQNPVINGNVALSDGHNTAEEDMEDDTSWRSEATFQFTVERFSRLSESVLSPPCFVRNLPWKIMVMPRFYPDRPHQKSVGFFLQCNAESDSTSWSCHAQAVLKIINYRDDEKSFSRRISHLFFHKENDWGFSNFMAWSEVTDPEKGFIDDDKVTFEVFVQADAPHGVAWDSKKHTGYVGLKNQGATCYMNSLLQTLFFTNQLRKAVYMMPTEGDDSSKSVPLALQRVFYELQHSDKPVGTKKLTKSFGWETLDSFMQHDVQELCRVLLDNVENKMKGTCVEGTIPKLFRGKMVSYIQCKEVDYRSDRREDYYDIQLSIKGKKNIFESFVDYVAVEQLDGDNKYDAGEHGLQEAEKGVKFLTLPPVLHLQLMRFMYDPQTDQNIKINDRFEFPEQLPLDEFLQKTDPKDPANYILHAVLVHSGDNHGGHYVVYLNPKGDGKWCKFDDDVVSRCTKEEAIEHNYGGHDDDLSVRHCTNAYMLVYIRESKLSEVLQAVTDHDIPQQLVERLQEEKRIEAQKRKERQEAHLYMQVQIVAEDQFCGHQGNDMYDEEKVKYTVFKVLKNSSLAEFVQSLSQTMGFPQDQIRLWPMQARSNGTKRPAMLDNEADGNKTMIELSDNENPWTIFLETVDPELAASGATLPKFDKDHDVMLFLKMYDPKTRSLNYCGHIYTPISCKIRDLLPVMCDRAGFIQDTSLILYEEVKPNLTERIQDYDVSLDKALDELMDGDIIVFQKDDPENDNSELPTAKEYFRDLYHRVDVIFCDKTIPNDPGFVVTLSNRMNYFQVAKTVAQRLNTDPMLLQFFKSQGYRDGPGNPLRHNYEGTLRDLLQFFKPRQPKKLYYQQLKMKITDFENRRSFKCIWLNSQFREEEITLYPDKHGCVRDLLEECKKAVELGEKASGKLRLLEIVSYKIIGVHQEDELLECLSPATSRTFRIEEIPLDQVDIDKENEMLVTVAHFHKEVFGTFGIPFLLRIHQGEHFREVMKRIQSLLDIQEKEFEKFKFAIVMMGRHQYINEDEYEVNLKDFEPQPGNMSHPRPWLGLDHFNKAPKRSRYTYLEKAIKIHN
USP7 Ubl123 D762A (Q93009, form named): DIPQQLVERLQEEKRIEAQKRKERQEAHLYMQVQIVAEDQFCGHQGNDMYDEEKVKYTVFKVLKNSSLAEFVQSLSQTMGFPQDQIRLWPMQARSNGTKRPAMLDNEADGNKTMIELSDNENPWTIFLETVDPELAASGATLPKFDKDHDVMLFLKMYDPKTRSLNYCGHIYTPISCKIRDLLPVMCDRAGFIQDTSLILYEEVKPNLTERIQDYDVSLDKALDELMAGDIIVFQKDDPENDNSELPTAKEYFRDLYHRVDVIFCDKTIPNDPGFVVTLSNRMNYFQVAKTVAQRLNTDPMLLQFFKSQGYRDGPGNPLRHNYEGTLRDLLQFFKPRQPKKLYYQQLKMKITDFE
USP7 Ubl123 D762A/D764A (Q93009, form named): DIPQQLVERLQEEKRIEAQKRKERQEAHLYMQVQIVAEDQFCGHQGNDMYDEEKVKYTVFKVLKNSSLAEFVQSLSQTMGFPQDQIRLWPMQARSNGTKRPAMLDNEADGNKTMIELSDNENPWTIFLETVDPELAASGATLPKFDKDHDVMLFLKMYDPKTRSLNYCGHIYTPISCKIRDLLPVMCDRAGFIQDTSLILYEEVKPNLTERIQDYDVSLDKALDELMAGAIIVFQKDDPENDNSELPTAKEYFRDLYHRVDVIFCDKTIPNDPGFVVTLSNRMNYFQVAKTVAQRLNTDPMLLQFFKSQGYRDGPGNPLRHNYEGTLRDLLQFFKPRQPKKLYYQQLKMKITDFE
USP7 Ubl123 D764A (Q93009, form named): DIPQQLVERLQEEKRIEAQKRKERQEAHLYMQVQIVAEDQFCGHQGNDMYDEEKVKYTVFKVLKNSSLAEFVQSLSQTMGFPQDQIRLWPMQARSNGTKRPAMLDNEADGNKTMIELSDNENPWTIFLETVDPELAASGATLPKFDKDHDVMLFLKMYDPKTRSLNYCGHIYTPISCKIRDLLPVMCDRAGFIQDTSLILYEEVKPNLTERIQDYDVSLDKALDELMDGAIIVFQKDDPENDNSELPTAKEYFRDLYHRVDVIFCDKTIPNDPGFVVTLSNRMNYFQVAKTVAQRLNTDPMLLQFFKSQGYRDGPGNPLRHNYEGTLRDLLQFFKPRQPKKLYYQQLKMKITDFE
USP7 Ubl123 E759A (Q93009, form named): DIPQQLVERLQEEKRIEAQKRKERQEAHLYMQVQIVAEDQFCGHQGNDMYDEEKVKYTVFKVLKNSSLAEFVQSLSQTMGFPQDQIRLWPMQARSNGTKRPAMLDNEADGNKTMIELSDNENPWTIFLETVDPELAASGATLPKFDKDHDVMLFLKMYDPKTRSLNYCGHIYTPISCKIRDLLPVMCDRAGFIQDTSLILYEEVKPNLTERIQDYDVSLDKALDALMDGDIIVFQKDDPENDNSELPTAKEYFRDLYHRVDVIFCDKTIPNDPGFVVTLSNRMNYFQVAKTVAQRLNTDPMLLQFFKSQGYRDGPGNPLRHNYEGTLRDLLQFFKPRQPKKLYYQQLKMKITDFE
USP7-CTD D762A (Q93009, form named): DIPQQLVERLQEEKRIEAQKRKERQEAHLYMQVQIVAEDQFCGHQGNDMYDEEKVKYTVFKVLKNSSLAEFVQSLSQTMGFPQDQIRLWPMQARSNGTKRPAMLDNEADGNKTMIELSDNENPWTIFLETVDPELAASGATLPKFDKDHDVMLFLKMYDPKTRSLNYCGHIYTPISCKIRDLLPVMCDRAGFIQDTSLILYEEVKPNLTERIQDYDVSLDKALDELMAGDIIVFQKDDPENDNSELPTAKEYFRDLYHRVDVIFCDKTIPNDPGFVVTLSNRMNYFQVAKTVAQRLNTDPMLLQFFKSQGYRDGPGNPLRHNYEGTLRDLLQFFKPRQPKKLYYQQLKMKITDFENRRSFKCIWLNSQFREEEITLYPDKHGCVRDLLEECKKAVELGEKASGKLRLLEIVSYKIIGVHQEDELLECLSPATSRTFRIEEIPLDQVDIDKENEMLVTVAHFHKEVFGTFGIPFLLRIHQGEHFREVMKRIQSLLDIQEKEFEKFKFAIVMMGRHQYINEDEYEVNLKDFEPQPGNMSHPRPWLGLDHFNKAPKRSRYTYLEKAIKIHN
USP7-CTD D762A/D764A (Q93009, form named): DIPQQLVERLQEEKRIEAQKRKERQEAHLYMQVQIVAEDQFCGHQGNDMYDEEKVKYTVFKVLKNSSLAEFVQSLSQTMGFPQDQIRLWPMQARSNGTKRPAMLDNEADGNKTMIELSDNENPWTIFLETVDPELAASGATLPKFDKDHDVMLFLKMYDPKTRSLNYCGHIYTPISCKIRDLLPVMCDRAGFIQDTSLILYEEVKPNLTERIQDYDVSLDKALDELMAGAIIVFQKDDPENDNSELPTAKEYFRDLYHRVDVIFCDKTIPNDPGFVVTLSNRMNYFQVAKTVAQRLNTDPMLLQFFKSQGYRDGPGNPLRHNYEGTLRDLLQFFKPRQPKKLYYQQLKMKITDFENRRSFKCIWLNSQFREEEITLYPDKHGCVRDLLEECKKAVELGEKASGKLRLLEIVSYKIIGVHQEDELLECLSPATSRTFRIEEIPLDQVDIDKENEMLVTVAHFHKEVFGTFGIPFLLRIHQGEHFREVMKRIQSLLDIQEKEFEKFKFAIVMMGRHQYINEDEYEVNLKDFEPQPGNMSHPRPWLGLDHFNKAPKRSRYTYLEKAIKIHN
USP7-CTD D764A (Q93009, form named): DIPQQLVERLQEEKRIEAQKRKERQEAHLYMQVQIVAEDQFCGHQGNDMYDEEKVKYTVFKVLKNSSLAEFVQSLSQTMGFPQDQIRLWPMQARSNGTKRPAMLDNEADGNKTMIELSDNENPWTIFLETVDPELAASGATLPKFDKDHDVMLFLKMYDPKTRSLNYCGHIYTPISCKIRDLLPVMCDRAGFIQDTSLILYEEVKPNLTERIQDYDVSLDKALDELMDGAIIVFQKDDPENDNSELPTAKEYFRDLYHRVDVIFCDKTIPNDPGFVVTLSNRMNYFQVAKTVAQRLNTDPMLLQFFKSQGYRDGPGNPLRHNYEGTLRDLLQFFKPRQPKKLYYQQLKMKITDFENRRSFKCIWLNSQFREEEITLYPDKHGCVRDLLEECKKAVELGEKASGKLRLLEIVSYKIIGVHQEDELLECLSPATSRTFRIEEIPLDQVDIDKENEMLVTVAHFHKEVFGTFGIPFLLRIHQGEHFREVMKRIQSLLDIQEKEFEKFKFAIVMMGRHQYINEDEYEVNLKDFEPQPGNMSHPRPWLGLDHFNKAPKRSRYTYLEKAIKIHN
USP7-CTD E759A (Q93009, form named): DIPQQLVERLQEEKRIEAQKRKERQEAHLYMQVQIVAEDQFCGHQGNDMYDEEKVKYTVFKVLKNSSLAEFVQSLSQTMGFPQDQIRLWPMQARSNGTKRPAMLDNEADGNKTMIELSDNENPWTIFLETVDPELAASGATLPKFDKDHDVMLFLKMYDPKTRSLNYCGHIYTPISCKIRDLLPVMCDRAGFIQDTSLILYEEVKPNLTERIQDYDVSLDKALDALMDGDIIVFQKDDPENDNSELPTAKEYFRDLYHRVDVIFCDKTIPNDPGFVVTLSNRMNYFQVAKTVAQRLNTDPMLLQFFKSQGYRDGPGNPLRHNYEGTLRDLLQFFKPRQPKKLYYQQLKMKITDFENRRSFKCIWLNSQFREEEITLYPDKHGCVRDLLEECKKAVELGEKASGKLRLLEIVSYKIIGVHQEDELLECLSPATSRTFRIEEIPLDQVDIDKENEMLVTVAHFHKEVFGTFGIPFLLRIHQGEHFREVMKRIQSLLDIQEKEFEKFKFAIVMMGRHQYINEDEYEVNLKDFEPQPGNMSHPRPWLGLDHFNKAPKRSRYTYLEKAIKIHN
UniProt P49915: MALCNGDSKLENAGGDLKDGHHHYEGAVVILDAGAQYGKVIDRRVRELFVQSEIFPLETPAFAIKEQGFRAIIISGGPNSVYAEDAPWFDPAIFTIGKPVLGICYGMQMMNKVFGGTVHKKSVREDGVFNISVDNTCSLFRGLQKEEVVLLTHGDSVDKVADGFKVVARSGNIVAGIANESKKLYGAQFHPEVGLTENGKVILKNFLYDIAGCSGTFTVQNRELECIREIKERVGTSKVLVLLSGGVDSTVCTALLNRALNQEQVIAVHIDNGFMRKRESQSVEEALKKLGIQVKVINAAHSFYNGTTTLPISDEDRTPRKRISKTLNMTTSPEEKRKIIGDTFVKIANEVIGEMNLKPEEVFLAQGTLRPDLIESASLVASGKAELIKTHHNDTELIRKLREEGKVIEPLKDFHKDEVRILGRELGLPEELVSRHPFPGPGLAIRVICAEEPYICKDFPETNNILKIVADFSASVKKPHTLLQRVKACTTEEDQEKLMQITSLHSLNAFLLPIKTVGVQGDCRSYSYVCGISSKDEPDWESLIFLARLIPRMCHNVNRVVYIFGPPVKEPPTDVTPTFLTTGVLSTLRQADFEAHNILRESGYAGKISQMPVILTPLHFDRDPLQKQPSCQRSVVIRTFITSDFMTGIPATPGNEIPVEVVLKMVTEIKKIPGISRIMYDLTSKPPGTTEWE

biological target: myc-tagged WT USP7 (human) (UniProt Q93009); test: co-IP; 293T cells transfected with myc-USP7 (with or without ICP0); RIPA lysate, anti-myc antibody and protein A/G agarose; Western blot for ICP0, GMPS or UHRF1

Row | binding | Substance
1 | binds | endogenous GMPS (from UniProt P49915 1-693)

biological target: GST-ICP0 615-629 (herpes simplex virus 1 (HSV-1)); test: pull-down; GST pull-down: 250 μg USP7 protein with 250 μg GST fusion in 50 mM Tris pH 8.0, 100 mM NaCl, 5 mM DTT, 5% glycerol, on glutathione-sepharose overnight at 4°C; eluted with 30 mM reduced glutathione; Coomassie stained gel; both purified

Row | Substance | binding
2 | USP7 Ubl45 (886-1102) (from UniProt Q93009 886-1102) (domain or fragment) | no binding (tested: 250 μg of each protein)
3 | USP7 Ubl123 D762A (from UniProt Q93009 535-889) (domain or fragment) | no binding (tested: 250 μg of each protein)
4 | USP7 Ubl123 D762A/D764A (from UniProt Q93009 535-889) (domain or fragment) | no binding (tested: 250 μg of each protein)
5 | USP7 Ubl123 D764A (from UniProt Q93009 535-889) (domain or fragment) | no binding (tested: 250 μg of each protein)
6 | USP7 Ubl123 E759A (from UniProt Q93009 535-889) (domain or fragment) | no binding (tested: 250 μg of each protein)
7 | USP7 Ubl345 (776-1102) (from UniProt Q93009 776-1102) (domain or fragment) | no binding (tested: 250 μg of each protein)
8 | USP7-CTD D762A (from UniProt Q93009 535-1102) (domain or fragment) | no binding (tested: 250 μg of each protein)
9 | USP7-CTD D762A/D764A (from UniProt Q93009 535-1102) (domain or fragment) | no binding (tested: 250 μg of each protein)
10 | USP7-CTD D764A (from UniProt Q93009 535-1102) (domain or fragment) | no binding (tested: 250 μg of each protein)
11 | USP7-CTD E759A (from UniProt Q93009 535-1102) (domain or fragment) | no binding (tested: 250 μg of each protein)
